Results reported in US20180258158A1 (Bristol-Myers Squibb, published 2018).
No constants are given. Whether binding was seen depends on the method and setting. Some results given as binding are weak or reduced against the parent protein; the word gives no strength.

Chains of the proteins cited; added tags and fusions are not shown. Residues count along the entry.
UniProt P02768, residues 25-609: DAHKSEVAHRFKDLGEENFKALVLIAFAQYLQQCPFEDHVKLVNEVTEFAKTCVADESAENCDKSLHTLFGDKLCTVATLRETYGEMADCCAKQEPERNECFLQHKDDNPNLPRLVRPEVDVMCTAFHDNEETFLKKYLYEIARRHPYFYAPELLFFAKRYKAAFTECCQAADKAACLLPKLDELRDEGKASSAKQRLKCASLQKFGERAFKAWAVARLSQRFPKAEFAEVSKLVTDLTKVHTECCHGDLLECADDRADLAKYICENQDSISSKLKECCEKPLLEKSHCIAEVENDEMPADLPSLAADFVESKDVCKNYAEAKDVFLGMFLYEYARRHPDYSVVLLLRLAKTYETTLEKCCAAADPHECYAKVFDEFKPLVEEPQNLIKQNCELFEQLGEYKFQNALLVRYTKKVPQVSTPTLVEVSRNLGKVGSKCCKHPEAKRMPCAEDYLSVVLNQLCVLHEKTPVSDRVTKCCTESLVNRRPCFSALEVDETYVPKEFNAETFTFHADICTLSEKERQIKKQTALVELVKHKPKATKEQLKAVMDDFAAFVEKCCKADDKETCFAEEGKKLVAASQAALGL

Key:
[1] = biological target: T1, human serum albumin (HSA), full length (human, UniProt P02768 25-609); experiment: DB ELISA bin
T1 construct: mature; Immobilized on CM5 chip (SPR) or coated on plates (ELISA)

[2] = biological target: T1, human serum albumin (HSA), full length; experiment: SPR off-rate screen (Biacore, CM5): albumin immobilised, Adnectin 500 nM as analyte, 120 s association, 800 s dissociation, 25 C; response normalised to 100 at start of dissociation; target HSA per legend paragraph 18 and paragraph 260, not printed on the sheet

binding [1]: binds
binding [2]: binds
B1: ADX_6727_F03 (I43Y as printed in Table 4; I43A in Table 7) (designed binder)
chain: MGVSDVPRDLEVVAATPTSLLISWDAPAVTVRYYRITYGREVQKYSDLGPLYAYQEFTVPGSKSTATISGLKPGVDYTITVYAVTGSGESPASSKPISINYRTEIDKPSQHHHHHH
notes: Full His6-tagged entry
